For assay [1], the target named is ALKBH5 WT in HEK293T cells (human) (UniProt Q6P6C2). As to the kind of experiment: co-IP; IP-IB from lysates of HEK293T cells with the indicated plasmids.
Assay [2] concerns the target endogenous ALKBH5 of GSCs (human (endogenous in patient-derived GSCs)) (UniProt Q6P6C2). As to the kind of experiment: co-IP; endogenous proteins in GSC 83 and 456 lysates (IP lysis buffer; antibody and protein G agarose beads overnight), IgG control; cells with or without IR, sh-MST4, or inhibitors of ATM, ATR and DNA-PK.

Sequences of proteins named here, by UniProt entry; tags and fusion partners are left off.
UniProt Q6P6C2: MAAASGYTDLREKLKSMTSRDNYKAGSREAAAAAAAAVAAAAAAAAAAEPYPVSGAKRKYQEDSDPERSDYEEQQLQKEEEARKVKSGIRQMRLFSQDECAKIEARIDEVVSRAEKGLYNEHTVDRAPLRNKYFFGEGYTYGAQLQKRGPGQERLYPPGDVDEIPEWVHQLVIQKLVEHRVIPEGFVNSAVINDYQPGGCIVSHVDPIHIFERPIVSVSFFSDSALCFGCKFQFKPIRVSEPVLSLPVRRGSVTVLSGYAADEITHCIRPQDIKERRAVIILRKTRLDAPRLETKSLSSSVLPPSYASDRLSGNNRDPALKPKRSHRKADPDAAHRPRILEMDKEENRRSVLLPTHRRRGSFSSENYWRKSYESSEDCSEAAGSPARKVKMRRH
UniProt Q9P2P5: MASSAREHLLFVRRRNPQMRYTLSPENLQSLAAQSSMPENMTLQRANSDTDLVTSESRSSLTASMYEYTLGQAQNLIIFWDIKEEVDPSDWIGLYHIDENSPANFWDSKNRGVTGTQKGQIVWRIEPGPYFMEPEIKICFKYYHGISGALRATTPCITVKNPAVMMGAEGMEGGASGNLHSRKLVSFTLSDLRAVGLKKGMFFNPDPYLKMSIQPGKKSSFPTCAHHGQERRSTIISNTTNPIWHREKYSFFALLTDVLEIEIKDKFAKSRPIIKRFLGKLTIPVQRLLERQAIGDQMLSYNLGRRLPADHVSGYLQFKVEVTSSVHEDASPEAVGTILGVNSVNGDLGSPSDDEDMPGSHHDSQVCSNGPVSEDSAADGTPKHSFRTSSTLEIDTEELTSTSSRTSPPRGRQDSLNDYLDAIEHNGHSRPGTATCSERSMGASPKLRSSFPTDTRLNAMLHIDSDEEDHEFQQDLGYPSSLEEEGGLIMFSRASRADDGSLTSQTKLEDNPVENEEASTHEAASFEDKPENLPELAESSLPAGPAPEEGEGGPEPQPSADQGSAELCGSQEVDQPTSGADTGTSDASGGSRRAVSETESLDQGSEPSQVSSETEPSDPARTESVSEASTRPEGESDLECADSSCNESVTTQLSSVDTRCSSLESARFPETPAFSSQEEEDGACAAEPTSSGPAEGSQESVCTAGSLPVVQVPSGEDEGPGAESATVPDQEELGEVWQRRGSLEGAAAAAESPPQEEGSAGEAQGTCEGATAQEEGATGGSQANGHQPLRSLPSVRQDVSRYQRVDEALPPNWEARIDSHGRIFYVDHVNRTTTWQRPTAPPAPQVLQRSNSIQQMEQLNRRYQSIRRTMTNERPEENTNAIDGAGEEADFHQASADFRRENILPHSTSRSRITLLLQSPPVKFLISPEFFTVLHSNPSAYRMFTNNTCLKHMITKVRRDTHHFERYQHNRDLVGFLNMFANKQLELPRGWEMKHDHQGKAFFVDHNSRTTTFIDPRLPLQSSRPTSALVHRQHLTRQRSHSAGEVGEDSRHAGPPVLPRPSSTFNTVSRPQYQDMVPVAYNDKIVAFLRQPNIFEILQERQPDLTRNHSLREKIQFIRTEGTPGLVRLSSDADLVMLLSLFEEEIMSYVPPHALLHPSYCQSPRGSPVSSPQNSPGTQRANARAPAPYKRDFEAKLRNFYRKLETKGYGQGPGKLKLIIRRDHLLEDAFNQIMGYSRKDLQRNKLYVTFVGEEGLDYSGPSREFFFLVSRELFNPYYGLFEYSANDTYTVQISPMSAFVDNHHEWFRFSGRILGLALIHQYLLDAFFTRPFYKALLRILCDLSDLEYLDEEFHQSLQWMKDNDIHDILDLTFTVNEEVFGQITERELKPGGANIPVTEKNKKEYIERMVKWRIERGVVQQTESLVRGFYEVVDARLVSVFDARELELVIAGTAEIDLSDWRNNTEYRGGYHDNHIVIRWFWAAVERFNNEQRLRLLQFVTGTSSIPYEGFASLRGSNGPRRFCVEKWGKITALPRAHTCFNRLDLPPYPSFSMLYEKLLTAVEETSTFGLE
UniProt Q9P289: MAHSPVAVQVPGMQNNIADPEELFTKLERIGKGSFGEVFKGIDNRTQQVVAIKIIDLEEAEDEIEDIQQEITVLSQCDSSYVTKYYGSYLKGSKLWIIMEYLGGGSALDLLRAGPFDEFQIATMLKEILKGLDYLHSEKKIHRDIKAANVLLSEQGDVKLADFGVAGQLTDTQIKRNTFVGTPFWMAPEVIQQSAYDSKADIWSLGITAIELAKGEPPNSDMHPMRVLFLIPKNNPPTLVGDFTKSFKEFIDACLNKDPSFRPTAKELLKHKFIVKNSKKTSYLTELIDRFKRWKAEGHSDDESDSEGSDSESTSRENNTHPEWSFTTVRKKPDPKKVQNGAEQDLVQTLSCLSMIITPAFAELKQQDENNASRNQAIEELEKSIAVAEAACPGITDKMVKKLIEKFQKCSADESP

No constants are given. Whether binding was seen depends on the method and setting. Binding seen in cells or lysates may run through a third protein. Some binding calls cover weakened binding; strength is not graded here.

Consider “HECW2 in HEK293T cells (from UniProt Q9P2P5 1-1572) (enzyme)”, for which the binding result in assay [1] was “binds”.

On to “endogenous MST4 of GSCs (from UniProt Q9P289 1-416) (enzyme)”, for which the binding result in assay [2] was “binds”.

The values above are taken from PMC11840735.
